Article PMC3662692

Protein sequences, listed by entry. Tags and fused reporters are not part of them. Lines headed by an entry give the natural chain unless they say otherwise; changes in a name come on top.
UniProt Q03135: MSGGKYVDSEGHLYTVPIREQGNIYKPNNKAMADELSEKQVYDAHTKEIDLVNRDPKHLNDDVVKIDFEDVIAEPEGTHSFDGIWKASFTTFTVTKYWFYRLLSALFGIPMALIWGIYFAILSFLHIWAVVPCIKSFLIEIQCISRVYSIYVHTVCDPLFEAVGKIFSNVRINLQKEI
UniProt P04264: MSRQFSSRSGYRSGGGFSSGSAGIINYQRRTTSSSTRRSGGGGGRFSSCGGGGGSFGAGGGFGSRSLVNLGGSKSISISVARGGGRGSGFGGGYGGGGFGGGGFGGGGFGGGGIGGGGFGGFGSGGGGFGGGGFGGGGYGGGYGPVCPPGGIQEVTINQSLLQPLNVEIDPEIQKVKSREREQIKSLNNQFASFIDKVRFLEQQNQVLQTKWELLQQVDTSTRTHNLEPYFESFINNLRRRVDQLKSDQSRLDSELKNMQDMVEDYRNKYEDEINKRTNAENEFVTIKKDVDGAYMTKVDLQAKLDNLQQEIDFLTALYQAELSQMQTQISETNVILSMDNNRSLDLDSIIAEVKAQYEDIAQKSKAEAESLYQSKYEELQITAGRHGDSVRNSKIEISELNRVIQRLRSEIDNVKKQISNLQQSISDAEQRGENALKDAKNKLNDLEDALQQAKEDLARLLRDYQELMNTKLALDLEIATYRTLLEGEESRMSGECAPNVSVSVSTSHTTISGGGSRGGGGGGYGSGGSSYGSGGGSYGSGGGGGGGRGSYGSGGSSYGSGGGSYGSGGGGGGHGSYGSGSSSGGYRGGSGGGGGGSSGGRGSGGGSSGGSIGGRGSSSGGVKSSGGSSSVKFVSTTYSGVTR
UniProt O43795: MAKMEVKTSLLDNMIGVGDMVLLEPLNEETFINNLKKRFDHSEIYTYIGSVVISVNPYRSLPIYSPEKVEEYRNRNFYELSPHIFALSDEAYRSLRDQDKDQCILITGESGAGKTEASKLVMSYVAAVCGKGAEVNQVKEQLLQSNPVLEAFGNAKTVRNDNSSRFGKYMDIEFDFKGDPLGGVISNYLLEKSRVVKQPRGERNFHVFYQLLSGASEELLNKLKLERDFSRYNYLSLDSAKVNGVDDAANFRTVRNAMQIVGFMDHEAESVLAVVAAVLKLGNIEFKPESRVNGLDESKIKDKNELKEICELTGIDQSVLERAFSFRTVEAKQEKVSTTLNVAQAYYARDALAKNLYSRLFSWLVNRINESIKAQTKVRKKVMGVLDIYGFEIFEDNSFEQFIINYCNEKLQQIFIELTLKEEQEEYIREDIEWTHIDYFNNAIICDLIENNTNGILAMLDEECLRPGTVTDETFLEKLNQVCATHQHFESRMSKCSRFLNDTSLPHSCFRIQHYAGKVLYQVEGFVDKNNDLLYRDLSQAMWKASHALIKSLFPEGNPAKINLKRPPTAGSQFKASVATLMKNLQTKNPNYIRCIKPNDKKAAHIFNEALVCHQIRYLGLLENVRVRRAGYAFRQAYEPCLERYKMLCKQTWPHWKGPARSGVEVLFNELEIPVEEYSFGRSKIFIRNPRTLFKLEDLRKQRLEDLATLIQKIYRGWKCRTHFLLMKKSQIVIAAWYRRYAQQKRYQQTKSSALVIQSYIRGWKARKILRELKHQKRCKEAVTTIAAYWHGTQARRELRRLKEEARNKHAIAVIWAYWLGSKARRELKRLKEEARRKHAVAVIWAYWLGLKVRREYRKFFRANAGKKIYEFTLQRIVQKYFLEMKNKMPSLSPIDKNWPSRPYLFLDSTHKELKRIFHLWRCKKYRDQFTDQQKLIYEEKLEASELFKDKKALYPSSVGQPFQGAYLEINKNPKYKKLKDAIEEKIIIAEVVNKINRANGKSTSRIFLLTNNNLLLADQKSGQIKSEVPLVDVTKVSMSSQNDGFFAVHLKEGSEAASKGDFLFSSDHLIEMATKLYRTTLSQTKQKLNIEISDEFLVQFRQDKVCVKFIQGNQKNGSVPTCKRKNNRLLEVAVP
UniProt P35579: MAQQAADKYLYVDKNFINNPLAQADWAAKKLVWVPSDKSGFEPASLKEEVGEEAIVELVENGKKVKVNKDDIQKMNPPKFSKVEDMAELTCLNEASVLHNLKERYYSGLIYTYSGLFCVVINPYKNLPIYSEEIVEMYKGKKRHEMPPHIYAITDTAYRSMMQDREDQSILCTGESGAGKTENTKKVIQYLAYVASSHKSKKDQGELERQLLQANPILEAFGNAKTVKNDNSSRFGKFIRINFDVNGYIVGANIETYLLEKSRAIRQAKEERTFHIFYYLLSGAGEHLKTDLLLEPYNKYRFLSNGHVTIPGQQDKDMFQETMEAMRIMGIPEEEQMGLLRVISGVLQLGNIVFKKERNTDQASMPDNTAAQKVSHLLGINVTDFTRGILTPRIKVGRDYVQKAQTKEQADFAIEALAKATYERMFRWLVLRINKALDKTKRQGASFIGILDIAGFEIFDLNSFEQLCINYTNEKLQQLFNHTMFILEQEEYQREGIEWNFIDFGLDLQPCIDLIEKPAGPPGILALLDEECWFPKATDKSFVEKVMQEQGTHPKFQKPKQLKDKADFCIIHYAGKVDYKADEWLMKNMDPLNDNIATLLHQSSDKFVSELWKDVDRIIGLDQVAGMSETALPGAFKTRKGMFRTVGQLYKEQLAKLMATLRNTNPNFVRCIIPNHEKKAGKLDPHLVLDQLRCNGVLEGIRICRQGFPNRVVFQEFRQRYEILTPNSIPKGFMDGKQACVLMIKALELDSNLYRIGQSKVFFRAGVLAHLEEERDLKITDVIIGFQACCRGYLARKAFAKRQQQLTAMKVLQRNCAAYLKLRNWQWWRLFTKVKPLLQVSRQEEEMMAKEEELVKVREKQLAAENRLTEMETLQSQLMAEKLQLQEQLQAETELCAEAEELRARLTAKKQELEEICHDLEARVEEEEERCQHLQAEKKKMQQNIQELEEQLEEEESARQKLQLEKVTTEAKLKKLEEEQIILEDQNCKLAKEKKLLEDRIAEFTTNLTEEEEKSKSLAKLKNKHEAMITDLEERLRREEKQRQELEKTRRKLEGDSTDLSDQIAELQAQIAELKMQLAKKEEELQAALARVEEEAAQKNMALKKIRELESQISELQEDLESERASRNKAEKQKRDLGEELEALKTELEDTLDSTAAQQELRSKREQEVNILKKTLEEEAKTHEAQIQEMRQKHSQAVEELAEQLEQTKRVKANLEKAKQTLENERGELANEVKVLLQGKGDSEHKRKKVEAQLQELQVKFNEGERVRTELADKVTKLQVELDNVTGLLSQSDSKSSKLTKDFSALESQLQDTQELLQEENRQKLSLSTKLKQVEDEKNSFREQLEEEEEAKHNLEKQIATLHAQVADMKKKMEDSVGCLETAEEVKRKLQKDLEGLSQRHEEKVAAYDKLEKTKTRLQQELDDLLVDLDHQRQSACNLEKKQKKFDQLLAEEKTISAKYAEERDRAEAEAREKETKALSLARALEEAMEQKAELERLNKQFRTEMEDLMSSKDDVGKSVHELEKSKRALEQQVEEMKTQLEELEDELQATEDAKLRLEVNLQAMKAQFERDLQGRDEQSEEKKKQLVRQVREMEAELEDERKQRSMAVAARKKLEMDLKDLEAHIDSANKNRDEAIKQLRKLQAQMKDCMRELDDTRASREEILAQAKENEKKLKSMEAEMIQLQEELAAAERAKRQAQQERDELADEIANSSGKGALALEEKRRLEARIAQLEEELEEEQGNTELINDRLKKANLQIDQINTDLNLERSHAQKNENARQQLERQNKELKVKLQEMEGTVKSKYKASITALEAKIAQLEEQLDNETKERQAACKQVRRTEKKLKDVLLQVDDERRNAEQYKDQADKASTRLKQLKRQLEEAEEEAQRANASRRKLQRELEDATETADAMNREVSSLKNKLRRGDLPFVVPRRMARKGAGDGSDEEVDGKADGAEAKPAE

B1: myosin ID (protein, UniProt O94832 1-1006)
chain: MAEQESLEFGKADFVLMDTVSMPEFMANLRLRFEKGRIYTFIGEVVVSVNPYKLLNIYGRDTIEQYKGRELYERPPHLFAIADAAYKAMKRRSKDTCIVISGESGAGKTEASKYIMQYIAAITNPSQRAEVERVKNMLLKSNCVLEAFGNAKTNRNDNSSRFGKYMDINFDFKGDPIGGHINNYLLEKSRVIVQQPGERSFHSFYQLLQGGSEQMLRSLHLQKSLSSYNYIHVGAQLKSSINDAAEFRVVADAMKVIGFKPEEIQTVYKILAAILHLGNLKFVVDGDTPLIENGKVVSIIAELLSTKTDMVEKALLYRTVATGRDIIDKQHTEQEASYGRDAFAKAIYERLFCWIVTRINDIIEVKNYDTTIHGKNTVIGVLDIYGFEIFDNNSFEQFCINYCNEKLQQLFIQLVLKQEQEEYQREGIPWKHIDYFNNQIIVDLVEQQHKGIIAILDDACMNVGKVTDEMFLEALNSKLGKHAHFSSRKLCASDKILEFDRDFRIRHYAGDVVYSVIGFIDKNKDTLFQDFKRLMYNSSNPVLKNMWPEGKLSITEVTKRPLTAATLFKNSMIALVDNLASKEPYYVRCIKPNDKKSPQIFDDERCRHQVEYLGLLENVRVRRAGFAFRQTYEKFLHRYKMISEFTWPNHDLPSDKEAVKKLIERCGFQDDVAYGKTKIFIRTPRTLFTLEELRAQMLIRIVLFLQKVWRGTLARMRYKRTKAALTIIRYYRRYKVKSYIHEVARRFHGVKTMRDYGKHVKWPSPPKVLRRFEEALQTIFNRWRASQLIKSIPASDLPQVRAKVAAVEMLKGQRADLGLQRAWEGNYLASKPDTPQTSGTFVPVANELKRKDKYMNVLFSCHVRKVNRFSKVEDRAIFVTDRHLYKMDPTKQYKVMKTIPLYNLTGLSVSNGKDQLVVFHTKDNKDLIVCLFSKQPTHESRIGELVGVLVNHFKSEKRHLQVNVTNPVQCSLHGKKCTVSVETRLNQPQPDFTKNRSGFILSVPGN

Biological target: biotin-labeled Cav1 peptide, amino acid residues 7-21, phosphorylated at Tyr14 (UniProt Q03135)
Assay: affinity purification with mass spectrometry; biotin-labeled Cav1 peptides (residues 7-21, with or without phosphorylated Tyr14) as bait, streptavidin-agarose pull-down from AGS cell lysates, SDS-PAGE, silver staining, Maldi-MS/MS of bands enriched with the pY14 peptide; only the target purified

Molecule	binding
cytokeratin 1 (from UniProt P04264 1-644)	binds
myosin IB (from UniProt O43795 1-1136)	binds
non muscle myosin heavy chain IIA (from UniProt P35579 1-1960)	binds
B1	binds

These are yes or no findings as the source states them, for the method shown. In cells and extracts the contact can be indirect. A yes stands for co-enrichment or nearness to the bait. Other partners may have been found.
